Broadly, the AC50 is the midpoint of the concentration-response curve, whichever way the signal moves.

Molecules are shown by their SMILES. This is one part of the list. Shown are side measurements of this screen, not its main read-out; they come without a call. Compounds called inactive in the main read-out are mostly missing here. Words in brackets tell the shape of the fitted curve; partial curves, single points and poor fits give uncertain potencies.

The experiment is described as follows: IkB Signaling. The settings on record: ABC-DLBCL IkBa-CBG/CBR dual luciferase ratio (green luciferase fused to IkBa over red control in OCI-Ly3 lymphoma cells), 4 h; measured here: control luc red channel unless noted. A digest of the protocol:
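In this assay, an IκBα–CBG68 fusion accumulates when IKK-driven degradation is blocked; native CBR normalizes for cell number. OCI-Ly3 cells were treated 4 h with compound and doxycycline, then green and red light read after Chroma-Glo addition.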
Consider `CCC(CC)C(=O)Nc1nnc(S(=O)(=O)N2CCc3ccccc32)s1`, for which the AC50 is 2.51 µM [rising, partial curve].

For the molecule `O=C(NCc1ccccc1Cl)C1CCN(C(=O)N2CCOc3ccccc32)CC1`, the AC50 was 5.01 µM [falling, full curve].

Take `Nc1nc(N)c2nc(CNc3ccc(C(=O)N[C@H](CCC(=O)O)C(=O)O)cc3)cnc2n1`: the AC50 was 39.8 µM [rising, partial curve, poor fit] [measured here: IkB-luc green channel].

For the molecule `[O-][N+]1=c2ccc(Nc3ccccc3)cc2=NC12CCCCC2`, the concentration at half-maximal activity (AC50) was 5.01 µM [falling, partial curve].

As to `Cc1ccccc1CNC(=O)c1oc2c(c1C)-c1nn(Cc3ccc(Cl)cc3)cc1CC2`, the AC50 was 15.8 µM [falling, single point].

For `CCC(Sc1nc(-c2ccccc2)[nH]c1S(=O)(=O)c1ccc(C)cc1)C(=O)O` (stereo unspecified), the AC50 was 15.8 µM [falling, partial curve].

Take `CCCCn1c(=S)[nH]c2c(oc3ccc(Cl)cc32)c1=O`: the AC50 is 1 µM [falling, full curve, poor fit].

Take `COc1ccc(N2CCN(C(=O)C3CCN(S(=O)(=O)c4cccc5nonc45)CC3)CC2)cc1`: the AC50 is 3.16 µM [rising, partial curve].

Turning to `O=C(Nc1ccc(-c2nc3ccccc3o2)c(O)c1)c1ccccc1`, the half-maximal activity concentration (AC50) is 3.16 µM [rising, partial curve].

For the molecule `O=S(=O)(c1ccc(F)cc1)N1CN(Cc2ccco2)c2nc3ccccc3nc21`, the AC50 was 10 µM [falling, partial curve].

Take `COc1ccc(NC(=O)Cn2c(=O)c3cccn3c3ccccc32)cc1Cl`: the AC50 was 20 µM [falling, partial curve].

As to `COc1cccc2sc(NC(=O)c3ccc(S(=O)(=O)N4CCC(C)CC4)cc3)nc12`, the half-maximal activity concentration (AC50) was 10 µM [falling, partial curve].

For `COc1ccc(C)cc1NC(=O)Nc1cc(C(=O)NCc2ccc(C)cc2)ccc1N1CCCC1`, the AC50 was 3.98 µM [falling, partial curve].

For `CC1CCN(c2nc(-c3ccncc3)nc3ccccc23)CC1`, the AC50 is 39.8 µM [falling, single point].

As to `COc1ccc(-c2nc3sc(CCNC(=O)Cc4ccc(F)cc4)c(C)n3n2)cc1`, the AC50 is 39.8 µM [falling, partial curve, poor fit].

With `CCOc1ccc(CNCc2c(C(=O)O)c(C)n(Cc3ccc(C)cc3)c2C)cc1`, the AC50 was 31.6 µM [falling, single point].

On to `CCCn1nnc(NC(=O)c2cccc(OCC(C)C)c2)n1`, for which the AC50 was 3.16 µM [rising, partial curve].

In the case of `CCOc1ccccc1OCCCCn1c(-c2ccc(Cl)cc2)nc2ccccc2c1=O`, the AC50 is 15.8 µM [falling, partial curve].

In the case of `COc1cc(Cl)c(NC(=O)CCc2nc3cccnc3n2-c2ccccc2)c(OC)c1`, the concentration at half-maximal activity (AC50) was 25.1 µM [falling, single point].

In the case of `O=C(CSc1nc2cc3ccccc3cc2[nH]1)Nc1ccc(F)cc1`, the AC50 is 12.6 µM [falling, partial curve].

Consider `Cc1ccc(NC(=O)c2cnc(SCC(=O)N3CCCc4ccccc43)n(C)c2=O)cc1`, for which the AC50 is 5.01 µM [falling, partial curve].

For the molecule `CC(C)(C)OC(=O)N1CCC(c2c(C(=O)N3CCN(c4ccccc4F)CC3)cnn2-c2ccccc2Cl)CC1`, the AC50 is 25.1 µM [falling, partial curve].

Take `CCOc1ccc(NC(=O)CCNS(=O)(=O)c2ccc3c(c2)CCCC(=O)N3)cc1`: the AC50 is 39.8 µM [falling, single point].

Consider `Cc1ccc2cc(CCNC(=O)c3ccc(Br)o3)c(=O)[nH]c2c1`, for which the AC50 was 12.6 µM [falling, partial curve].

Take `CCOc1ccc(NC(=O)c2c(NCc3cccnc3)sc3c2CCC(C)C3)cc1` (stereo unspecified): the AC50 is 39.8 µM [falling, single point].

Regarding `CCN(CC)C(=O)Cn1c(=O)n(-c2ccc(C)c(C)c2)c(=O)c2c(C)c(C(=O)N(CC)CC)sc21`, the AC50 is 7.94 µM [rising, single point].

With `CCN1CCN(C(=O)c2cnn(-c3ccc(F)cc3F)c2C2CCN(C(=O)OC(C)(C)C)CC2)CC1`, the AC50 was 1.26 µM [rising, partial curve].

With `CC(=O)c1sc(NC(=O)c2c(-c3ccccc3)c(-c3ccccc3)nn(C)c2=O)nc1C`, the AC50 was 20 µM [falling, partial curve].

`CSCSC1=C(C#N)C(c2ccccc2Cl)C(C(C)=O)=C(C)N1` (stereo unspecified): the half-maximal activity concentration (AC50) is 10 µM [falling, partial curve].

As to `CC1CCC(N2CC(=O)N(CCC3=CCCCC3)C(c3ccc(F)cc3)C2=O)CC1` (stereo unspecified), the AC50 was 39.8 µM [falling, partial curve].

With `O=C(CN1CCC(n2nnc3ccccc32)CC1)Nc1ccc2c(c1)CCC2`, the AC50 is 15.8 µM [falling, partial curve].

Take `CCn1c(SCc2nc3ccccc3s2)nc2cc(S(=O)(=O)N3CCOCC3)ccc21`: the AC50 is 7.94 µM [falling, partial curve].

As to `COc1cccc(C(=O)Nc2nc3ccc(S(=O)(=O)N4CCCC4)cc3s2)c1`, the AC50 is 15.8 µM [falling, partial curve].

With `O=C(Nc1ccc(Br)cc1)c1cc(-c2cccs2)nc2ccccc12`, the AC50 is 10 µM [rising, partial curve] [measured here: IkB-luc green channel].

Take `CC1CCC(N2CC(=O)N(C3CCCCC3)C(c3ccc(Cl)cc3)C2=O)CC1` (stereo unspecified): the AC50 was 3.16 µM [rising, partial curve].

In the case of `COc1ccc(-c2cc(C(=O)Oc3ccc(C)cc3)c3ccccc3n2)cc1`, the AC50 was 5.01 µM [rising, full curve, poor fit].

Take `CC(C)Oc1ccc(C(=O)N2CCC(c3nc4ccccc4o3)CC2)cc1`: the AC50 was 10 µM [falling, partial curve].

Consider `O=C(CCC(=O)c1cccs1)Nc1ccccc1F`, for which the AC50 is 20 µM [falling, partial curve].

As for `Nc1nc(NCc2c(F)cccc2Cl)nn1-c1ccccc1`, the AC50 was 25.1 µM [falling, single point].

Regarding `O=C1CSC2(C(=O)N(Cc3ccccc3F)c3ccccc32)N1c1cccc(C(F)(F)F)c1` (stereo unspecified), the AC50 is 10 µM [falling, partial curve].

`CC(C)(C)C1CCc2onc(C(=O)NCc3ccc(F)cc3)c2C1` (stereo unspecified): the AC50 is 15.8 µM [falling, partial curve].

Regarding `c1coc(-c2nc3nc4ccccc4nc3n2CC2CCCO2)c1` (stereo unspecified), the AC50 is 12.6 µM [falling, partial curve].

With `Cc1ccc(S(=O)(=O)c2cnc(SCC(=O)Nc3ccc4c(c3)OCCO4)[nH]c2=O)cc1Cl`, the concentration at half-maximal activity (AC50) is 10 µM [falling, partial curve].

For `Cc1ccccc1NC(=O)c1cn(-c2ccccc2)nc1-c1ccccc1`, the AC50 was 0.00631 µM [rising, full curve, poor fit].

In the case of `Cc1ccccc1-c1ccnc2[nH]n(-c3ccccc3)c(=O)c12`, the AC50 was 20 µM [falling, partial curve].

Take `COc1ccccc1C(=O)Nc1cccc(C(=O)OCc2cc(=O)n3nc(C4CC4)sc3n2)c1`: the AC50 is 3.16 µM [falling, full curve, poor fit].

For the molecule `O=C(Nc1ccc(OC(F)(F)F)cc1)C(Cc1ccccc1)NS(=O)(=O)c1cccc2nsnc12` (stereo unspecified), the half-maximal activity concentration (AC50) is 1.58 µM [falling, partial curve].

With `Cc1ccc(C)c(CNC(=O)c2ccc3c(c2)nc2n3CCOC2)c1`, the AC50 was 0.0398 µM [falling, full curve, poor fit].

For the molecule `COc1cccc(CNC(=O)Cn2ccc3cc(S(=O)(=O)N4CCCC4)ccc32)c1OC`, the AC50 is 3.16 µM [falling, full curve, poor fit].

Take `CCOC(=O)c1c(Nc2ccc(O)cc2)nnc(-c2ccccc2)c1-c1ccccc1`: the AC50 is 10 µM [falling, partial curve].

Turning to `Cc1cc(Br)ccc1OCC(=O)N(Cc1nc(-c2ccccc2)no1)C(C)C`, the half-maximal activity concentration (AC50) is 25.1 µM [falling, partial curve].

On to `CCc1ccc(C(=O)COC(=O)C(Cc2c[nH]c3ccccc23)NC(=O)c2ccc(CC)cc2)cc1` (stereo unspecified), for which the AC50 was 12.6 µM [falling, partial curve].

Turning to `Cc1ccc(NC(=O)CSc2nnc(-c3nnn(-c4ccc(F)cc4)c3C)o2)cc1Br`, the AC50 was 39.8 µM [falling, single point].

With `Cc1nc(-c2cccc(F)c2)sc1CCNC(=O)c1c(F)cccc1Cl`, the AC50 was 15.8 µM [falling, single point].

As for `COc1cccc(N2CCN(C(=O)c3cc4c(s3)-c3c(C)cccc3OC4)CC2)c1`, the AC50 was 3.16 µM [falling, full curve].

With `Cc1ccc(NC(=O)CN2C(=O)COc3ccc(S(=O)(=O)N4CCCCCC4)cc32)cc1Cl`, the AC50 is 15.8 µM [falling, partial curve].

As to `COc1ccccc1OCC(=O)N(Cc1nc(-c2ccccc2)no1)C1CCCCC1`, the AC50 is 25.1 µM [falling, single point].

In the case of `O=C(c1ccc(F)cc1F)N1CCC(c2nc(-c3ccc(S(=O)(=O)N4CCCC4)cc3)no2)CC1`, the concentration at half-maximal activity (AC50) was 39.8 µM [falling, single point].

For the molecule `CCN(CC)S(=O)(=O)c1ccc2c(c1)nc(CN(C)C(=O)Nc1ccc(F)cc1)n2C`, the AC50 is 2.51 µM [rising, partial curve].

On to `COc1cc(Cl)c(C)cc1NC(=O)CCc1c(C)nc2c3cccnc3nn2c1C`, for which the AC50 is 39.8 µM [falling, single point].

Take `O=C1CC(c2ccco2)Cc2nc(N3CCc4ccccc4C3)ncc21` (stereo unspecified): the AC50 was 25.1 µM [falling, single point].

These data come from PubChem BioAssay AID445 (National Center for Advancing Translational Sciences (NCATS), 2006).
